Test results as given in the supplement of paper PMC8090911.
Structures can show the parent of a compound that is named as a salt. The list shows a part of the results. Many values rest on one well or one pass, so single values are uncertain.

What follows are compounds tested on p95-ErbB2-MCF7 (assay: perinuclear lysosome accumulation (PNLA, size of LAMP2 puncta), robust Z-score vs plate median; higher = more perinuclear lysosome accumulation (reversal of invasive lysosome distribution)). Conditions: 5 µM; 24 h.
For `CCCNC(=O)NS(=O)(=O)c1ccc(Cl)cc1` [Chlorpropamide], the perinuclear lysosome accumulation was 0.0196.
With `CCN(CC)C(C)CN1c2ccccc2Sc2ccccc21` (stereo not given) [Ethopropazine hydrochloride] the perinuclear lysosome accumulation was -1.42.
In the case of `Cn1c(=O)c2c(ncn2CC2OCCO2)n(C)c1=O` [Doxofylline], the perinuclear lysosome accumulation was 1.25.
Work on `CN1CCN(CC(=O)N2c3ccccc3C(=O)Nc3cccnc32)CC1` [Pirenzepine dihydrochloride] yielded a perinuclear lysosome accumulation of -0.465.
Compound `COC(=O)Nc1nc2cc(Sc3ccccc3)ccc2[nH]1` [Fenbendazole] has a perinuclear lysosome accumulation of 3.37.
`CN(CCCCCCCCCCN(C)C(=O)Oc1cccc([N+](C)(C)C)c1)C(=O)Oc1cccc([N+](C)(C)C)c1` [Demecarium bromide] showed a perinuclear lysosome accumulation of 0.00915.
In the case of `CC(=O)N(CC(O)CO)c1c(I)c(C(=O)NCC(O)CO)c(I)c(C(=O)NCC(O)CO)c1I` (stereo not given) [Iohexol], the perinuclear lysosome accumulation was -1.9.
`c1ccc(-c2ccc(C(c3ccccc3)n3ccnc3)cc2)cc1` (stereo not given) [Bifonazole] showed a perinuclear lysosome accumulation of -0.0292.
Work on `Oc1c(Cl)cc(Cl)c2cccnc12` [Chloroxine] yielded a perinuclear lysosome accumulation of -2.18.
Compound `CN(C)CCC(c1ccc(Br)cc1)c1ccccn1` (stereo not given) [Brompheniramine maleate] has a perinuclear lysosome accumulation of -0.189.
Work on `CC(=O)OC[C@H]1O[C@@H]([S-])[C@H](OC(C)=O)[C@@H](OC(C)=O)[C@@H]1OC(C)=O.CCP(CC)CC.[Au+]` [Auranofin] yielded a perinuclear lysosome accumulation of 6.05.
In the case of `CCC1(c2ccccc2)C(=O)NCNC1=O` [Primidone], the perinuclear lysosome accumulation was 0.0431.
Compound `Nc1ncnc2c1ncn2[C@@H]1O[C@H](CO)[C@@H](O)[C@@H]1O` [Vidarabine] has a perinuclear lysosome accumulation of -1.97.
In the case of `C[C@@](Cc1ccc(O)c(O)c1)(NN)C(=O)O` [Carbidopa], the perinuclear lysosome accumulation was 1.51.
With `CCOc1nc2cccc(C(=O)O)c2n1Cc1ccc(-c2ccccc2-c2nnn[nH]2)cc1` [Candesartan] the perinuclear lysosome accumulation was 0.59.
Compound `CC(=O)Nc1nnc(S(N)(=O)=O)s1` [Acetazolamide] has a perinuclear lysosome accumulation of 0.644.
For `Cc1cc2cc3c(C)cc(=O)oc3c(C)c2o1` [Trioxsalen], the perinuclear lysosome accumulation was -0.207.
`Clc1ccc2nsnc2c1NC1=NCCN1` [Tizanidine HCl] was tested, and the perinuclear lysosome accumulation was -0.0785.
`CCCCOc1cc(C(=O)OCCN(CC)CC)ccc1N` [Benoxinate hydrochloride] gave a perinuclear lysosome accumulation of 1.85.
`C[C@]12CC[C@@H]3c4ccc(O)cc4C[C@@H](CCCCCCCCC[S+]([O-])CCCC(F)(F)C(F)(F)F)[C@H]3[C@@H]1CC[C@@H]2O` (stereo not given in full) [Fulvestrant] was tested, and the perinuclear lysosome accumulation was -0.55.
`CO/N=C(\C(=O)N[C@@H]1C(=O)N2C(C(=O)O)=C(COC(C)=O)CS[C@H]12)c1csc(N)n1` [Cefotaxime sodium salt] gave a perinuclear lysosome accumulation of 0.0858.
Work on `Nc1ccc(S(=O)(=O)Nc2nccs2)cc1` [Sulfathiazole] yielded a perinuclear lysosome accumulation of -0.956.
`CC(CNC1CCCCC1)OC(=O)c1ccccc1` (stereo not given) [Hexylcaine hydrochloride] was tested, and the perinuclear lysosome accumulation was -2.11.
`Cc1ccc(-c2cc(C(F)(F)F)nn2-c2ccc(S(N)(=O)=O)cc2)cc1` [Celecoxib] gave a perinuclear lysosome accumulation of 0.673.
`C[C@@H]1CCC[C@H](C)N1NC(=O)c1ccc(Cl)c(S(N)(=O)=O)c1` [Clopamide] was tested, and the perinuclear lysosome accumulation was 0.197.
In the case of `CC[C@H]1OC(=O)[C@H](C)[C@@H](O[C@H]2C[C@@](C)(OC)[C@@H](O)[C@H](C)O2)[C@H](C)[C@@H](O[C@@H]2O[C@H](C)C[C@H](N(C)C)[C@H]2O)[C@](C)(O)C[C@@H](C)CN(C)[C@H](C)[C@@H](O)[C@]1(C)O` [Azithromycin], the perinuclear lysosome accumulation was 0.765.
`CN[C@H]1CC[C@@H](c2ccc(Cl)c(Cl)c2)c2ccccc21` [Sertraline] gave a perinuclear lysosome accumulation of 6.79.
Compound `CCN(CC)CCNC(=O)c1ccc(N)cc1` [Procainamide hydrochloride] has a perinuclear lysosome accumulation of -0.0544.
Work on `CC(=O)Nc1c(I)c(C(=O)N[C@H]2C(O)O[C@H](CO)[C@@H](O)[C@@H]2O)c(I)c(N(C)C(C)=O)c1I` (stereo not given in full) [Metrizamide] yielded a perinuclear lysosome accumulation of 0.488.
Compound `CCOC1O[C@H]([C@@H](COCc2ccccc2)OCc2ccccc2)[C@H](OCc2ccccc2)[C@H]1O` (stereo not given in full) [Tribenoside] has a perinuclear lysosome accumulation of 0.0937.
With `CNCC(O)c1ccc(O)c(O)c1` (stereo not given) [Racepinephrine HCl] the perinuclear lysosome accumulation was 0.2.
`N[C@H]1CONC1=O` [(S)-(-)-Cycloserine] showed a perinuclear lysosome accumulation of -0.344.
For `CCN(CC)C(=O)Nc1ccc(OCC(O)CNC(C)(C)C)c(C(C)=O)c1` (stereo not given) [Celiprolol HCl], the perinuclear lysosome accumulation was 1.45.
`COc1cc2nc(N3CCN(C(=O)C4COc5ccccc5O4)CC3)nc(N)c2cc1OC` (stereo not given) [Doxazosin mesylate] gave a perinuclear lysosome accumulation of 1.74.
Work on `CCN(CCCCOC(=O)c1ccc(OC)c(OC)c1)C(C)Cc1ccc(OC)cc1` (stereo not given) [Mebeverine hydrochloride] yielded a perinuclear lysosome accumulation of -0.149.
With `Cc1cc(C(C)(C)C)cc(C)c1CC1=NCCN1` [Xylometazoline hydrochloride] the perinuclear lysosome accumulation was -1.42.
`CCN(CC)CCOCCOC(=O)C1(c2ccccc2)CCCC1` [Carbetapentane citrate] showed a perinuclear lysosome accumulation of -0.511.
Work on `Cc1c(N)c(=O)n(-c2ccccc2)n1C` [Ampyrone] yielded a perinuclear lysosome accumulation of -3.07.
`C=CCOc1ccccc1OCC(O)CNC(C)C` (stereo not given) [Oxprenolol hydrochloride] showed a perinuclear lysosome accumulation of 1.16.
`NC[C@H]1O[C@H](O[C@H]2[C@H](O)[C@@H](O[C@H]3O[C@H](CO)[C@@H](O)[C@H](N)[C@H]3O)[C@H](N)C[C@@H]2N)[C@H](N)C[C@@H]1O` [Tobramycin] showed a perinuclear lysosome accumulation of 0.422.
`CCOC(=O)/C=C(C)/C=C/C=C(C)/C=C/c1c(C)cc(OC)c(C)c1C` [Etretinate] was tested, and the perinuclear lysosome accumulation was 1.19.
Work on `CN1CCN2c3ncccc3Cc3ccccc3C2C1` (stereo not given) [Mirtazapine] yielded a perinuclear lysosome accumulation of -0.223.
In the case of `Cc1cc(C)nc(NS(=O)(=O)c2ccc(N)cc2)n1` [Sulfamethazine sodium salt], the perinuclear lysosome accumulation was -1.25.
Compound `COc1cc(NS(=O)(=O)c2ccc(N)cc2)ncn1` [Sulfamonomethoxine] has a perinuclear lysosome accumulation of 0.0411.
In the case of `CC1(C)O[C@@H]2C[C@H]3[C@@H]4C[C@H](F)C5=CC(=O)C=C[C@]5(C)[C@@]4(F)[C@@H](O)C[C@]3(C)[C@]2(C(=O)CO)O1` [Fluocinolone acetonide], the perinuclear lysosome accumulation was 0.0292.
`COC(=O)N/N=C/c1c[n+]([O-])c2ccccc2[n+]1[O-]` [Carbadox] showed a perinuclear lysosome accumulation of 0.881.
Work on `CN(C(=O)CN(CCO)CC(=O)N(C)C(C)(C)Cc1ccccc1)C(C)(C)Cc1ccccc1` [Oxethazaine] yielded a perinuclear lysosome accumulation of -1.37.
`CC(C(O)c1ccc(O)cc1)N1CCC(Cc2ccccc2)CC1` (stereo not given) [Ifenprodil tartrate] was tested, and the perinuclear lysosome accumulation was -1.82.
`COc1ccc(Cl)cc1C(=O)NCCc1ccc(S(=O)(=O)NC(=O)NC2CCCCC2)cc1` [Glibenclamide] showed a perinuclear lysosome accumulation of 1.12.
`CC#C[C@]1(O)CC[C@H]2[C@@H]3CCC4=CC(=O)CCC4=C3[C@@H](c3ccc(N(C)C)cc3)C[C@@]21C` [Mifepristone] showed a perinuclear lysosome accumulation of -0.433.
Compound `CCC[C@@H]1C[C@@H](C(=O)N[C@@H]([C@H]2O[C@H](SC)[C@H](OP(=O)(O)O)[C@@H](O)[C@H]2O)[C@H](C)Cl)N(C)C1` [Clindamycin Phosphate] has a perinuclear lysosome accumulation of 0.0332.
`CCCOc1ccccc1-c1nc2[nH]nnc2c(=O)[nH]1` [Zaprinast] gave a perinuclear lysosome accumulation of 1.54.
`Cc1c(Nc2ncccc2C(=O)O)cccc1C(F)(F)F` [Flunixin meglumine] showed a perinuclear lysosome accumulation of -0.265.
Compound `CC[C@H](c1ccc(O)cc1)[C@@H](CC)c1ccc(O)cc1` [Hexestrol] has a perinuclear lysosome accumulation of 1.18.
In the case of `CC1(C)O[C@@H]2C[C@H]3[C@@H]4C[C@H](F)C5=CC(=O)C=C[C@]5(C)[C@H]4[C@@H](O)C[C@]3(C)[C@]2(C(=O)CO)O1` [Flunisolide], the perinuclear lysosome accumulation was -0.989.
`C[C@H](CS)C(=O)N1CCC[C@H]1C(=O)O` [Captopril] gave a perinuclear lysosome accumulation of 1.36.
For `CN(Cc1cc(Br)cc(Br)c1N)C1CCCCC1` [Bromhexine hydrochloride], the perinuclear lysosome accumulation was -1.09.
With `NCCc1ccc(O)c(O)c1` [Dopamine hydrochloride] the perinuclear lysosome accumulation was -2.1.
In the case of `CC(C)C(=O)c1c(C(C)C)nn2ccccc12` [Ibudilast], the perinuclear lysosome accumulation was -0.757.
Compound `OC(CCN1CCCC1)(c1ccccc1)C1CCCCC1` (stereo not given) [Procyclidine hydrochloride] has a perinuclear lysosome accumulation of 1.81.
`CC(CN(C)C)CN1c2ccccc2CCc2ccccc21` (stereo not given) [Trimipramine maleate salt] was tested, and the perinuclear lysosome accumulation was 0.882.
Work on `C=C1C(=O)O[C@H]2[C@H]1CC/C(C)=C/CC[C@@]1(C)O[C@@H]21` [Parthenolide] yielded a perinuclear lysosome accumulation of -0.6.
In the case of `CCCCOc1ccc(C(=O)CCN2CCCCC2)cc1` [Dyclonine hydrochloride], the perinuclear lysosome accumulation was 0.581.
`Cn1nnc2c(C(N)=O)ncn2c1=O` [Temozolomide] showed a perinuclear lysosome accumulation of 0.133.
For `CN1[C@@H]2CC[C@H]1C[C@@H](OC(=O)C(O)c1ccccc1)C2` (mixture of isomers) [Homatropine hydrobromide (R,S)], the perinuclear lysosome accumulation was -0.000761.
`CC(C)(C)NC(=O)[C@H]1CC[C@H]2[C@@H]3CC[C@H]4NC(=O)C=C[C@]4(C)[C@H]3CC[C@]12C` [Finasteride] showed a perinuclear lysosome accumulation of 0.589.
Work on `Nc1nc(N)c2nc(-c3ccccc3)c(N)nc2n1` [Triamterene] yielded a perinuclear lysosome accumulation of -0.742.
`CN1CCCN=C1/C=C/c1cccs1` [Pyrantel tartrate] showed a perinuclear lysosome accumulation of -0.838.
In the case of `CCC[C@@H]1C[C@@H](C(=O)N[C@@H]([C@H]2O[C@H](SC)[C@H](O)[C@@H](O)[C@H]2O)[C@@H](C)O)N(C)C1` [Lincomycin hydrochloride], the perinuclear lysosome accumulation was -0.552.
With `C#C[C@]1(O)CC[C@H]2[C@@H]3CCC4=Cc5oncc5C[C@]4(C)[C@H]3CC[C@@]21C` [Danazol] the perinuclear lysosome accumulation was 1.85.
`CCOc1ccc(Cc2nccc3cc(OCC)c(OCC)cc23)cc1OCC` [Ethaverine hydrochloride] gave a perinuclear lysosome accumulation of 1.7.
Compound `O=C(Nc1ccc([N+](=O)[O-])cc1Cl)c1cc(Cl)ccc1O` [Niclosamide] has a perinuclear lysosome accumulation of 5.99.
With `CC12CC3CC(C)(C1)CC(N)(C3)C2` [Memantine Hydrochloride] the perinuclear lysosome accumulation was 0.0969.
Work on `CCN1CCCC1CNC(=O)c1cc(S(N)(=O)=O)ccc1OC` (stereo not given) [Sulpiride] yielded a perinuclear lysosome accumulation of 0.267.
For `CCCCc1oc2ccccc2c1C(=O)c1cc(I)c(OCCN(CC)CC)c(I)c1` [Amiodarone hydrochloride], the perinuclear lysosome accumulation was -0.000491.
